These results are taken from PubChem BioAssay AID2685 (National Center for Advancing Translational Sciences (NCATS), 2010).

Molecules are shown by their SMILES. The list shows a part of the results. The main result of the screen is listed elsewhere. These columns were measured beside it and carry no call. Compounds called inactive in the main read-out are mostly missing here. Words in brackets tell the shape of the fitted curve; partial curves, single points and poor fits give uncertain potencies.

The test can be described thus: qHTS Assay for Lipid Storage Modulators in Drosophila S3 Cells.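 For cell number change: cells counted by Cell Tracker Red CMTPX staining in the red channel.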 The settings on record: BODIPY lipid droplet fluorescence, 18-24 h; for cell number change: measured here: cell count max response, cells fed with added oleic acid. Summed up:
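Laser-scanning cytometry quantifies lipid droplet accumulation (500–530 nm total intensity; droplet/cell object ratio) in oleic acid-fed (400 uM added) Drosophila S3 cells treated with a concentration series. 20 uM Triacsin C defined 100% inhibition.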
(In general: In qHTS, concentration-response curves come from the screen itself.)

[1] abbreviates: measured here: cell number channel AC50, cells fed with added oleic acid.
Setting [2] is: measured here: lipid fluorescence (Fed channel) AC50, cells fed with added oleic acid.

For `CCOC(=O)CN(C(=O)CSc1nnc2c(n1)[nH]c1ccc(F)cc12)c1ccccc1`, the cell number change was -68.6%. Moreover, the AC50 under setting [1] was 4.11 µM [falling, partial curve]. The AC50 under setting [2] is 2.06 µM [falling, full curve]. Turning to `CC(Oc1ccc(Cl)cc1Cl)/C(N)=N/O` (stereo not drawn), the cell number change is 0.504%. The AC50 under setting [2] is 0.00461 µM [falling, full curve, poor fit]. Take `COC(=O)CSc1nnc2c3c4c(sc3nc(-n3nc(C)cc3C)n12)COC(C)(C)C4`: the cell number change turned out to be 3.54%.

Consider `COCCn1c(=NC(=O)c2ccc(S(=O)(=O)N3CCc4ccccc4C3)cc2)sc2cc(OC)ccc21`, for which the cell number change turned out to be 34.5%. In addition, the AC50 under setting [1] was 2.59 µM [rising, full curve]. Also, the AC50 under setting [2] is 2.06 µM [rising, full curve]. Turning to `COC(=O)c1ccc(NC(=O)C(=O)c2c[nH]c3ccccc23)cc1`, the cell number change was determined as 23.1%. For the same compound, the AC50 under setting [2] is 16.4 µM [rising, partial curve, poor fit]. For the compound `Cc1cccc(OCC(=O)NNC(=O)c2ccc3nc[nH]c3c2)c1`, the cell number change is -7.64%. Further, under setting [2], the AC50 was 0.00461 µM [rising, full curve, poor fit]. For `O=C1CS/C(=C/C(=O)c2cccc(Cl)c2)N1`, the cell number change came to 40.9%. Moreover, the AC50 under setting [1] is 2.31 µM [rising, full curve]. Also, the AC50 under setting [2] was 6.51 µM [rising, single point]. For `O=C(Cc1csc(-c2ccc(F)cc2)n1)Nc1cccc(S(=O)(=O)NC2=NCCC2)c1`, the cell number change was 15.3%. Also, the AC50 under setting [2] was 20.6 µM [falling, single point]. Regarding `CN(C(=O)c1ccc2c(c1)OCO2)C1CCS(=O)(=O)C1` (stereo not drawn), the cell number change is -43.7%. Besides, under setting [1], the concentration at half-maximal activity (AC50) is 11.6 µM [falling, partial curve, poor fit]. For the same compound, the AC50 under setting [2] is 23.1 µM [falling, partial curve].

For `CCOC(=O)c1c(NC(=O)CN2C(=O)NC3(CCCC3)C2=O)sc(C)c1CC`, the cell number change was -21.9%. The same measure, in the same setting: for `CCN(CC)c1cc(C)c2cc(NC(=O)c3ccccc3F)ccc2n1` the value was 16.7%.

For the compound `CCOC(=O)Nc1nnc(-c2cccc(OC)c2)s1`, the cell number change came out at 65.8%. Also, under setting [1], the AC50 was 29.1 µM [rising, single point].

As for `CCN(CC)S(=O)(=O)c1ccc(N2CCOCC2)c(NC(=O)c2ccc(F)cc2)c1`, the cell number change was determined as 45.5%. Under setting [1], the AC50 was 32.6 µM [rising, single point]. In addition, the AC50 under setting [2] was 20.6 µM [rising, single point].

On to `COc1ccccc1N1CCN(C(=O)NC23CC4CC(CC(C4)C2)C3)CC1`, for which the cell number change is -4.78%.

In the case of `CC(=O)N/C(=C/c1ccccc1)c1ccccc1`, the cell number change is -21.3%. Also, the AC50 under setting [2] is 2.31 µM [rising, partial curve]. As for `Cc1oc(-c2ccc(Cl)cc2)nc1CN1CCC(C(=O)NCCCN2CCCC(C)C2)CC1` (stereo not drawn), under setting [2], the AC50 was 0.58 µM [rising, partial curve]. Turning to `CCOc1cc(/C=N/NC(=O)c2nn(C)cc2Br)ccc1OCc1ccccc1`, the AC50 is 3.26 µM [rising, single point] under setting [1] and 20.6 µM [rising, partial curve] under setting [2]. Consider `COc1ccc(C(C(=O)NCc2ccccc2)N(C(=O)c2snc(C(N)=O)c2N)C2CCCC2)cc1O` (stereo not drawn), for which the cell number change came out at 10.3%. Consider `O=C(O)COc1ccc(/C=N/NC(=O)C2CCCN2S(=O)(=O)c2ccc(Cl)cc2)cc1` (stereo not drawn), for which the AC50 under setting [1] is 0.731 µM [falling, single point]. For `CCCCC(=O)NCc1ccccc1Cl`, the cell number change is -15%. Still for that read-out and setting: for `O=C(Nc1nnc(CCc2ccccc2)s1)c1cccs1` the value was -2.66%.

Turning to `CCOC(=O)C1CCCN(C(=O)c2cc3c(=O)n(C)c4ccccc4c3n2C)C1` (stereo not drawn), the cell number change was -33%. The AC50 under setting [1] is 5.17 µM [falling, partial curve, poor fit]. Moreover, the AC50 under setting [2] was 8.2 µM [falling, partial curve].

In the case of `C=CCN1C(=O)c2ccc(C(=O)N(C)CC(=O)Nc3ccccc3C(F)(F)F)cc2C1=O`, the cell number change was -11.1%. The AC50 under setting [2] is 0.366 µM [falling, full curve, poor fit]. With `CCc1cc(=O)oc2cc(OC(C)C(=O)NCCCn3ccnc3)ccc12` (stereo not drawn), the cell number change turned out to be 22%. With `O=C(COC(=O)c1ccc2c(c1)OCCO2)NCc1ccccc1`, the cell number change came out at 11.9%. Also, the AC50 under setting [2] was 0.00461 µM [falling, full curve, poor fit]. Turning to `C=C(C)COc1ccc(-c2ncncc2-c2ccccc2)c(O)c1`, the cell number change amounted to 0.472%. Moreover, the AC50 under setting [2] is 0.651 µM [falling, full curve, poor fit]. Turning to `O=C1CC(N2CCOCC2)C(=O)N1CCc1ccccc1` (stereo not drawn), the cell number change was -23.3%. Besides, the AC50 under setting [1] is 2.31 µM [falling, single point]. For the same compound, under setting [2], the AC50 is 32.6 µM [falling, partial curve, poor fit]. On to `C/C(=N\NC(=S)Nc1ccc(C(C)C)cc1)c1ccc2c(c1)OCO2`, for which the cell number change came out at 22.3%. Further, the AC50 under setting [1] was 0.517 µM [rising, full curve, poor fit]. The AC50 under setting [2] was 1.3 µM [rising, full curve]. `CCCSc1ccc([C@@H]2[C@@H]3C(=O)N(C)C(=O)[C@@H]3[C@]3(C(=O)OC)CCCCN23)cc1OC`: the cell number change was -43.4%. The AC50 under setting [1] is 29.1 µM [falling, single point]. For the compound `COc1cc(S(=O)(=O)NCC2OCCc3ccccc32)ccc1-n1cnnn1` (stereo not drawn), the cell number change was -40.9%. The AC50 under setting [1] was 29.1 µM [falling, single point]. Turning to `Cc1ccsc1/C=N/NS(=O)(=O)c1ccc([N+](=O)[O-])cc1`, the cell number change turned out to be 1.06%. Further, the AC50 under setting [2] is 29.1 µM [rising, single point]. As for `O=C(Nc1ccc(N2CCOCC2)nc1N1CCOCC1)c1cccc(C(F)(F)F)c1`, the cell number change amounted to 31.1%. Further, the AC50 under setting [1] is 9.2 µM [rising, partial curve]. The AC50 under setting [2] was 11.6 µM [rising, partial curve, poor fit]. Consider `Cc1ccc(OCc2ccc(C(=O)N3CCCC3)o2)cc1C`, for which the cell number change was 3.78%.

As for `CCN1CCN(c2ccc(S(=O)(=O)N3CCCCC3)cc2NC(=O)Cc2ccc(Cl)c(Cl)c2)CC1`, the cell number change worked out at 180%. For the compound `O=c1c(Cl)c(N2CCC3(CC2)OCCO3)cnn1C12CC3CC(CC(C3)C1)C2`, the cell number change was determined as 9.71%. Besides, under setting [2], the AC50 was 16.4 µM [rising, single point]. Consider `NS(=O)(=O)c1ccc(CCNC(=O)C(=O)C2C(=O)Nc3ccccc32)cc1` (stereo not drawn), for which the cell number change was -13.7%. Besides, under setting [2], the AC50 was 0.651 µM [falling, full curve, poor fit]. Turning to `CCc1ccc(/C=C2\SC(=S)N(CCCC(=O)Nc3ccccc3C(=O)O)C2=O)cc1`, the cell number change is -7.37%. For the same compound, the AC50 under setting [1] is 0.92 µM [rising, partial curve]. Take `O=C(O)CC(NS(=O)(=O)c1cccc2nsnc12)c1ccc(F)cc1` (stereo not drawn): the cell number change came to 18.5%. Also, under setting [2], the AC50 is 32.6 µM [rising, single point].

For orientation: AC50 means the concentration at which the activity in the assay is half-maximal. A lower AC50 goes with activity at low concentration.
